# Reference: PubChem BioAssay AID1053208 (Peter MacCallum Cancer Centre, 2014)
# Screen: 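Genes whose silencing cuts survival of bone tumour cells only with doxorubicin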 (primary screen)
# System: mouse osteosarcoma cells, early-passage culture from an engineered mouse model of fibroblastic bone tumour
# Knock-down reagent: siRNA pool against mouse genes, 40 nM
# Timing: about 120 h (48 h before drug, then 72 h with drug)
# Conditions: doxorubicin 100 nM for 72 h, roughly 30-40% inhibitory dose
# Measurement: 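Luminescent ATP signal taken as viability with or without 100 nM doxorubicin for 72 h; mean of two wells set against non-targeting siRNA and turned into robust z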
# Reading the numbers: viability z-score with doxorubicin and doxorubicin viability vs non-targeting: higher = more viable cells under doxorubicin; viability z-score without drug: higher = more viable cells with knock-down alone; z-score of drug to no-drug ratio: higher = less drug sensitisation by knock-down
# Call rule: 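Called active if knock-down leaves viability unchanged without drug (z within -2 to 2) but lowers it with doxorubicin (z at or under -2)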
# Here is an unselected part of about 17,000 deposited reagents. 788 of all reagents (4.7%) were called active. 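Calls rest on z-score classes alone; an extra cut-off of viability at most 70% of control was not applied to them.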
The opening 2 records, to show the layout:
target gene,combined z-score class,viability z-score with doxorubicin,viability z-score without drug,z-score of drug to no-drug ratio,doxorubicin viability vs non-targeting,outcome
Aip (GeneID 11632),no change with or without drug,-0.67,-0.51,-0.22,0.88,inactive
Dmrt2 (GeneID 226049),no change with or without drug,-0.34,-0.67,0.22,0.91,inactive

Main list, from the start:
target gene,combined z-score class,viability z-score with doxorubicin,viability z-score without drug,z-score of drug to no-drug ratio,doxorubicin viability vs non-targeting,outcome
Aip (GeneID 11632),no change with or without drug,-0.67,-0.51,-0.22,0.88,inactive
Dmrt2 (GeneID 226049),no change with or without drug,-0.34,-0.67,0.22,0.91,inactive
Slc25a5 (GeneID 11740),low cell count with doxorubicin only,-2.14,-1.18,-1.46,0.75,active
Trp63 (GeneID 22061),no change with or without drug,-0.9,1.18,-1.57,0.86,inactive
Map1s (GeneID 270058),no change with or without drug,0.45,-0.17,0.67,0.98,inactive
Ablim3 (GeneID 319713),no change with or without drug,0.67,1.85,-0.45,1,inactive
Npff (GeneID 54615),no change with or without drug,0,-1.01,0.9,0.94,inactive
Dph6 (GeneID 66632),no change with or without drug,0.22,1.01,-0.34,0.96,inactive
Or2bd2 (GeneID 257882),no change with or without drug,-0.67,1.18,-1.35,0.88,inactive
Csl (GeneID 71832),no change with or without drug,0.45,-0.51,1.01,0.98,inactive
Pknox2 (GeneID 208076),no change with or without drug,0.67,1.18,0,1,inactive
Sec63 (GeneID 140740),no change with or without drug,-0.45,-1.18,0.45,0.9,inactive
Usp36 (GeneID 72344),no change with or without drug,0.45,0.51,0.22,0.98,inactive
Ptf1a (GeneID 19213),no change with or without drug,-0.34,1.69,-1.24,0.91,inactive
Ghdc (GeneID 80860),no change with or without drug,-1.8,-0.84,-1.24,0.78,inactive
Zfp599 (GeneID 235048),no change with or without drug,-0.79,-0.84,-0.11,0.87,inactive
Fbxl9 (GeneID 234684),no change with or without drug,-0.45,0.17,-0.45,0.9,inactive
Neurog3 (GeneID 11925),no change with or without drug,1.35,-0.17,1.69,1.06,inactive
Exoc5 (GeneID 105504),no change with or without drug,-1.24,-1.52,-0.11,0.83,inactive
Pabpc6 (GeneID 67543),low cell count without drug only,0,-3.2,2.92,0.94,inactive
